Data source: PubChem BioAssay AID1224826 (NIAID, 2016)
This is an unselected part of about 17,000 reagents tested. In the full data, about 1,110 (6.6%) were called active. 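Active means lowered or raised reporter signal; replicate intensities are raw and not normalised per plate.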 A number with no mark means an inactive call. Further read-outs or replicates are left out here.

Purpose: 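Genes that change LPS-induced Tnf promoter activity in mouse macrophages when knocked down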 (primary screen)
Cell system: RAW264.7 G9 macrophages from mouse bearing reporters for p65 (GFP) and the Tnf promoter (mCherry)
Reagents: siRNA pool against mouse genes, 100 nM
Duration: 16 h of LPS stimulation, after 2 days of siRNA transfection
Treatment: bacterial lipopolysaccharide (Salmonella minnesota R595), 10 ng/ml
Measurement: 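Imaged Tnf reporter mCherry in nuclei, minus background, normalised per plate to the median and expressed as robust z-scores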
Scale: Tnf reporter robust z-score: higher = stronger Tnf promoter reporter signal after LPS
Active means: 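a well counts as active at a score of -1.3 or below (Tlr4 knock-down control median) or above 3 (raised signal); controls and wells holding fewer than 50 cells are excluded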
Calls: active = Tnf reporter clearly lowered or raised; inactive = no clear change in Tnf reporter

no.	Target gene	Tnf reporter robust z-score	fewer than 50 cells in well
1	Abl2	0.66	enough cells in well
2	Itgb6	1.42	enough cells in well
3	Kcnj16	0.18	enough cells in well
4	Cxcl13	-0.71	enough cells in well
5	Zfp65	-0.73	enough cells in well
6	Trpm6	0.28	enough cells in well
7	B3galt6	0.84	enough cells in well
8	Usp21	-1.07	enough cells in well
9	Mcts2		fewer than 50 cells per well; well left out of calls
10	Mterf1b	-0.57	enough cells in well
11	Clic3	1.05	enough cells in well
12	Abcg8	0.39	enough cells in well
13	Zfp691		fewer than 50 cells per well; well left out of calls
14	Yipf5	3.77 (active)	enough cells in well
15	Rangap1	0.45	enough cells in well
16	Sspn	-0.15	enough cells in well
17	Mbp	-0.04	enough cells in well
18	Ltb4r2	0.1	enough cells in well
19	Cdc37	1.13	enough cells in well
20	Hmbox1	-0.27	enough cells in well
21	Duxbl1		fewer than 50 cells per well; well left out of calls
22	Vrk1		fewer than 50 cells per well; well left out of calls
23	Arpp19	0.82	enough cells in well
24	Ophn1	0.51	enough cells in well
25	Kctd13	0.14	enough cells in well
26	Cyp46a1	-0.99	enough cells in well
27	Sipa1l1	-0.12	enough cells in well
28	Frk	3.03 (active)	enough cells in well
29	Serpinb9e	-0.76	enough cells in well
30	Opcml		fewer than 50 cells per well; well left out of calls
31	Hpd	-0.76	enough cells in well
32	Ctcf	-1.4 (active)	enough cells in well
33	Cckbr	0.61	enough cells in well
34	Gpr82	0.56	enough cells in well
35	Or51f5		fewer than 50 cells per well; well left out of calls
36	Ctbp2	0.04	enough cells in well
37	Snx17	-1.12	enough cells in well
38	Ankrd48		fewer than 50 cells per well; well left out of calls
39	Cd200	-0.51	enough cells in well
40	Cand2		fewer than 50 cells per well; well left out of calls
41	Ankrd1	0.2	enough cells in well
42	Svs6		fewer than 50 cells per well; well left out of calls
43	C230066G23Rik		fewer than 50 cells per well; well left out of calls
44	Prss34	1.37	enough cells in well
45	Luc7l2	-0.21	enough cells in well
46	Capn12	2.21	enough cells in well
47	Pkhd1	-0.13	enough cells in well
48	Or8b36	1.32	enough cells in well
49	Tial1	-0.23	enough cells in well
50	Dlst	0.94	enough cells in well
51	Or8g21	-0.08	enough cells in well
52	Ckm	-0.14	enough cells in well
53	Fbxo27		fewer than 50 cells per well; well left out of calls
54	Cavin3	-0.68	enough cells in well
55	Sult1d1	-0.16	enough cells in well
56	F11r	-0.83	enough cells in well
57	Vmn1r231	-1.22	enough cells in well
58	Glcci1	2.01	enough cells in well

Copied from the list:
Value of Ophn1 in “fewer than 50 cells in well”: enough cells in well
Frk, Tnf reporter robust z-score = 3.03 (active)
